The text below walks through data of publication PMC10821868.

Chains of the proteins cited; added tags and fusions are not shown.
UniProt Q91YI4: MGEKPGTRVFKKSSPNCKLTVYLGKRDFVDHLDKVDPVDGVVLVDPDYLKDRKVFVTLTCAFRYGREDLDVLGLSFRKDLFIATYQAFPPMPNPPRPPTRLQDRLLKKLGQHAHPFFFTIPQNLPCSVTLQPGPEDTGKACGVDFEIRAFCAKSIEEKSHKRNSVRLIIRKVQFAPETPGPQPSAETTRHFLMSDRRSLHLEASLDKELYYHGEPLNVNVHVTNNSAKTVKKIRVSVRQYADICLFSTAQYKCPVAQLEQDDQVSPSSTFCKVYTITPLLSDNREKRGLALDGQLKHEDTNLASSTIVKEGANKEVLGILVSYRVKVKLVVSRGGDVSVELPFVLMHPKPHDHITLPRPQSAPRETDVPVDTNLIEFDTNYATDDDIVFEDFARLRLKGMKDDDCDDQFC
UniProt Q63844: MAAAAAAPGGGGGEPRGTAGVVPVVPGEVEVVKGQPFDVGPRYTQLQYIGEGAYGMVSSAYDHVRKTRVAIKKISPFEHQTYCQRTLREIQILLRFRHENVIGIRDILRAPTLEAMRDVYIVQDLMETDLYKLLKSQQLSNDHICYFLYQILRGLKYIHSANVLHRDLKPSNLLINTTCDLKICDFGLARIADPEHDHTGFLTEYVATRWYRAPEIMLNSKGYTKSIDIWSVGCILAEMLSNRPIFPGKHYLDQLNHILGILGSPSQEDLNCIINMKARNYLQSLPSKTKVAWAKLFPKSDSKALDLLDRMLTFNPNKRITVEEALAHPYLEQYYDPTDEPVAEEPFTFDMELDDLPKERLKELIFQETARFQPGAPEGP
UniProt P63085: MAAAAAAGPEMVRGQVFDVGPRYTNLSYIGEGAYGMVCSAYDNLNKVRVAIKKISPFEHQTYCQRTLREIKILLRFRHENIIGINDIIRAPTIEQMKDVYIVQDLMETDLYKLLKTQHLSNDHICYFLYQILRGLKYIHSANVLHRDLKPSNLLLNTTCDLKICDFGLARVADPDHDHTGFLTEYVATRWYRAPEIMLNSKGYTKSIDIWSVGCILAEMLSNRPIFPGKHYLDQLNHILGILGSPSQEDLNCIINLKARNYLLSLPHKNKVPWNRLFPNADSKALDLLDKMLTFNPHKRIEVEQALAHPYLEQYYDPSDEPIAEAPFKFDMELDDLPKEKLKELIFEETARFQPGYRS

No constants are given. Whether binding was seen depends on the method and setting. In cells and extracts the contact can be indirect. Some results given as binding are weak or reduced against the parent protein; the word gives no strength.

In this test the target is β-arrestin2 (UniProt Q91YI4). As to the kind of experiment: co-IP; ImKCs transfected with β-arrestin2, treated with or without 50 nM DPI for 6 h; lysates immunoprecipitated with anti-β-arrestin2; precipitates analysed by Western blotting. (A western blot detects proteins with antibodies after separation by electrophoresis.)

For the substance ERK1 (from UniProt Q63844 1-380), the binding entry is “binds”.
The same measure for “PKM2 (from UniProt P52480-1 1-531) (enzyme)”: “binds”; for ERK2 (from UniProt P63085 1-358): “binds”.
